We go through 1 substance from publication PMC10656488.

By UniProt entry, the sequences of proteins in these tests, tags left out. Residues count along the entry.
UniProt P20029, residues 20-655: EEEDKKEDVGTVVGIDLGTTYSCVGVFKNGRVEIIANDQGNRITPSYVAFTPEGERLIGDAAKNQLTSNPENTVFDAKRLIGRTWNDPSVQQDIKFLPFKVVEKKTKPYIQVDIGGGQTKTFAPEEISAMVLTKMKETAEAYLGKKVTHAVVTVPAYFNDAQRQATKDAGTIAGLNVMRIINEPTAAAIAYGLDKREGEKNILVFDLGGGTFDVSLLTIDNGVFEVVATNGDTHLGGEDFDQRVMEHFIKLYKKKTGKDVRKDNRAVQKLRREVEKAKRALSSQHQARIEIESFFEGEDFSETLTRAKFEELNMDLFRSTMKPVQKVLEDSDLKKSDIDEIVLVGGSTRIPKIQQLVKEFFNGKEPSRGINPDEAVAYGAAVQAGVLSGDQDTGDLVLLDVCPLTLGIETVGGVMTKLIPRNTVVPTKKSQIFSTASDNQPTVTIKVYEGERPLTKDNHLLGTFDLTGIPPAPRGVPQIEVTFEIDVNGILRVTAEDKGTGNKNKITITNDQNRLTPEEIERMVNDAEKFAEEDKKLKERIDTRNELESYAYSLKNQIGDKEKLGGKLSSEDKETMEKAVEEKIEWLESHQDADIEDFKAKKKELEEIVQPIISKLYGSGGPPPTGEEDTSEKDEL
UniProt Q8K341: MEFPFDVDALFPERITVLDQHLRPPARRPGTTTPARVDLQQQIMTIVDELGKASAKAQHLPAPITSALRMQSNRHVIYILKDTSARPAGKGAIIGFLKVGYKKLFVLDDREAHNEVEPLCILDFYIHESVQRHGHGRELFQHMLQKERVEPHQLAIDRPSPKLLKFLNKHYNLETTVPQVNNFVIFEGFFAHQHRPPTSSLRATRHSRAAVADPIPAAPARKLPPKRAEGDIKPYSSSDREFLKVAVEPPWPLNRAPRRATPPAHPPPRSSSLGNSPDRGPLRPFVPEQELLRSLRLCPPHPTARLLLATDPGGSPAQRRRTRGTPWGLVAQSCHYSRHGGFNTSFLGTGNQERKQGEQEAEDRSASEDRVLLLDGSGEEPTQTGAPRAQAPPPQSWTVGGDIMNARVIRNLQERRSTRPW

These are yes or no findings as the source states them, for the method shown. In cells and extracts the contact can be indirect. Some results given as binding are weak or reduced against the parent protein; the word gives no strength.

The assay concerns the target heat shock protein 5 (HSPA5) (mouse (endogenous in peritoneal macrophages)) (UniProt P20029). Briefly: co-IP.

As for “alpha-tubulin acetyltransferase 1 (ATAT1) (from UniProt Q8K341 1-421) (enzyme)”, the binding entry is “binds”.
